Results taken from patent US20200392228A1.
Residue numbers refer to the chain shown, from its start. These are yes or no findings as the source states them, for the method shown. Binding calls can cover weak binding; strength is not graded here.

B1: MAdCAM antibody Clone ID 51 of Table 6 (scFv) (scFv)
scFv: EVQLLESGGGLVQPGGSLRLSCAASGFTFNNYGMNWVRQAPGKGLEWVSRINSDGSSTSYADSVKGRFTISRDNSKNTLYLQMNSLRAEDTAVYYCARGAYYYYYMDVWGQGTLVTVSSGGGGSGGGGSGGGGSGGGGSEIVMTQSPATLSVSPGERATLSCRASQSVSGSYLAWYQQKPGQAPRLLIYATSSRASGIPARFSGSGSGTEFTLTISSLQSEDFAVYYCQQYYSGLTFGQGTKVEIK
B2: MAdCAM antibody Clone ID 52 of Table 6 (scFv) (scFv)
scFv: EVQLLESGGGLVQPGGSLRLSCAASGFTFSNSDMNWVRQAPGKGLEWVAHIWNDGSQKYYADSVKGRFTISRDNSKNTLYLQMNSLRAEDTAVYYCARDRTDPGYSSAMDVWGQGTTVTVSSGGGGSGGGGSGGGGSGGGGSDIQMTQSPSSLSASVGDRVTITCRASQDIRNYLGWYQQKPGKAPKLLIYDASSLETGVPSRFSGSGSGTDFTLTISSLQPEDFATYYCQQATSLPLTFGGGTKVEIK
B3: MAdCAM antibody Clone ID 53 of Table 6 (scFv) (scFv)
scFv: QVQLVQSGAEVKKPGASVKVSCKASGYTFTSYDINWVRQAPGQGLEWMGWMNPNSGNTGYAQKFQGRVTMTRDTSTSTVYMELSSLRSEDTAVYYCAKDSDYSNLLWDYWGQGTLVTVSSGGGGSGGGGSGGGGSGGGGSDIQMTQSPSSLSASVGDRVTITCRASQDITNDLGWYQQKPGKAPKLLIYQASSLESGVPSRFSGSGSGTDFTLTISSLQPEDFATYYCQQSYTIPLTFGQGTKVEIK
B4: MAdCAM antibody Clone ID 3 of Table 6 (scFv) (scFv)
scFv: QVQLVQSGAEVKKPGASVKVSCKASGYPFIGQYLHWVRQAPGQGLEWMGIINPSGGSTSYAQKFQGRVTMTRDTSTSTVYMELSSLRSEDTAVYYCAREGRLSYGMDAWGQGTLVTVSSGGGGSGGGGSGGGGSGGGGSDIQMTQSPSSLSASVGDRVTITCRASQSISSYLAWYQQKPGKAPKLLIYGASTLESGVPSRFSGSGSGTDFTLTISSLQPEDFATYYCQQTWGPPFTFGQGTKLEIK
B5: MAdCAM antibody Clone ID 54 of Table 6 (scFv) (scFv)
scFv: EVQLLESGGGLVQPGGSLRLSCAASGFTFGDYAMSWVRQAPGKGLEWVAVVSYDGTNKYYADSVKGRFTISRDNSKNTLYLQMNSLRAEDTAVYYCAKDICSSTSCYFDLWGRGTLVTVSSGGGGSGGGGSGGGGSGGGGSDIQMTQSPSSLSASVGDRVTITCRASQNINNYVNWYQQKPGKAPKLLIYDASNLETGVPSRFSGSGSGTDFTLTISSLQPEDFATYYCQQANSFPPTFGQGTRLEIK
B6: MAdCAM antibody Clone ID 55 of Table 6 (scFv) (scFv)
scFv: QVQLVQSGAEVKKPGASVKVSCKASGYTFTSYYMHWVRQAPGQGLEWMGIIDPSGGSTSYAQKFQGRVTMTRDTSTSTVYMELSSLRSEDTAVYYCAREEWSSGGVGYFDYWGQGTLVTVSSGGGGSGGGGSGGGGSGGGGSDIQMTQSPSSLSASVGDRVTITCRASQGISSYLAWYQQKPGKAPKLLIYATSSLQTGVPSRFSGSGSGTDFTLTISSLQPEDFATYYCQQTYSIPITFGQGTRLEIK
B7: MAdCAM antibody Clone ID 56 of Table 6 (scFv) (scFv)
scFv: EVQLLESGGGLVQPGGSLRLSCAASGFTFDDYAMHWVRQAPGKGLEWVSAISGGGEDTYYADSVKGRFTISRDNSKNTLYLQMNSLRAEDTAVYYCARDASYGGNYGMDVWGQGTTVTVSSGGGGSGGGGSGGGGSGGGGSDIQMTQSPSSLSASVGDRVTITCQASQDIRNYLNWYQQKPGKAPKLLIYKASSLESGVPSRFSGSGSGTDFTLTISSLQPEDFATYYCQQANSYPVTFGGGTKVEIK
B8: MAdCAM antibody Clone ID 57 of Table 6 (scFv) (scFv)
scFv: QVQLVQSGAEVKKPGASVKVSCKASGYTFTSYYMHWVRQAPGQGLEWMGIINPSGGSTSYAQKFQGRVTMTRDTSTSTVYMELSSLRSEDTAVYYCARDSVAGTGGRYYGMDVWGQGTLVTVSSGGGGSGGGGSGGGGSGGGGSDIQMTQSPSSLSASVGDRVTITCRASQGISNYFAWYQQKPGKAPKLLIYAASSLQGGVPSRFSGSGSGTDFTLTISSLQPEDFATYYCQQSYSLPYTFGQGTKLEIK
B9: MAdCAM antibody Clone ID 58 of Table 6 (scFv) (scFv)
scFv: QVQLVQSGAEVKKPGASVKVSCKASGYTFTGYYMHWVRQAPGQGLEWMGIINPSGGNTKYAQKFQGRVTMTRDTSTSTVYMELSSLRSEDTAVYYCTTADYYYYMDVWGKGTTVTVSSGGGGSGGGGSGGGGSGGGGSDIQMTQSPSSLSASVGDRVTITCRASQGISNYLAWYQQKPGKAPKLLIYAASSLQSGVPSRFSGSGSGTDFTLTISSLQPEDFATYYCQQYYSNADFGQGTKVEIK
B10: MAdCAM antibody Clone ID 2 of Table 7 (IgG) (antibody, V domains shown)
VH: QVQLVQSGAEVKKPGASVKVSCKASGYPFIGYYLHWVRQAPGQGLEWMGIINPSGGSTSYAQKFQGRVTMTRDTSTSTVYMELSSLRSEDTAVYYCAREGRLSYGMDAWGQGTLVTVSS
VL: DIQMTQSPSSLSASVGDRVTITCRASQSISSYLAWYQQKPGKAPKLLIYGASTLESGVPSRFSGSGSGTDFTLTISSLQPEDFATYYCQQTWGPPFTFGQGTKLEIK
B11: MAdCAM antibody Clone ID 3 of Table 7 (IgG) (antibody, V domains shown)
VH: B10 VH with Y32Q
VL: B10 VL
B12: MAdCAM antibody Clone ID 12 of Table 7 (IgG) (antibody, V domains shown)
VH: QVQLVQSGAEVKKPGASVKVSCKASGYTLTTWYMYWVRQAPGQGLEWMGWINPNRGATNYAQKFQGRVTMTRDTSTSTVYMELSSLRSEDTAVYYCAKGDLWGAMDVWGQGTLVTVSS
VL: DIQMTQSPSSLSASVGDRVTITCRASDNIGSWLAWYQQKPGKAPKLLIYAASSLQSGVPSRFSGSGSGTDFTLTISSLQPEDFATYYCQQGYSTPPTFGQGTKVEIK
B13: MAdCAM antibody Clone ID 34 of Table 7 (IgG) (antibody, V domains shown)
VH: QVQLVQSGAEVKKPGASVKVSCKASGYTFTGYYIHWVRQAPGQGLEWMGWMNPNSGNTGYAQKFQGRVTMTRDTSTSTVYMELSSLRSEDTAVYYCARDPGFLGYCSGGSCYDGWFDPWGQGTLVTVSS
VL: B10 VL with A34H, G50A, T53S, E55Q, T91S, W92Y, G93T, P94A, F96Y
B14: MAdCAM antibody Clone ID 39 of Table 7 (IgG) (antibody, V domains shown)
VH: QVQLVQSGAEVKKPGASVKVSCKASGYTFTSYYMHWVRQAPGQGLEWMAWMNPNSGNTGYAQKFQGRVTMTRDTSTSTVYMELSSLRSEDTAVYYCARDYDFWSGSLGYWGQGTLVTVSS
VL: B12 VL with D27Q, N28G, G30S, S31N, W32Y, G91S, P96W
B15: MAdCAM antibody Clone ID 43 of Table 7 (IgG) (antibody, V domains shown)
VH: QVQLVQSGAEVKKPGASVKVSCKASGYTFTSYGISWVRQAPGQGLEWMGWMHPKSGDTGLTQKFQGRVTMTRDTSTSTVYMELSSLRSEDTAVYYCARDTPYYYYGMDVWGQGTTVTVSS
VL: B12 VL with D27Q, N28S, G30S, G91S, T94V, P96I
B16: MAdCAM antibody Clone ID 46 of Table 7 (IgG) (antibody, V domains shown)
VH: EVQLLESGGGLVQPGGSLRLSCAASGFSFSSYTMNWVRQAPGKGLEWVSFITSSSRTIYYADSVKGRFTISRDNSKNTLYLQMNSLRAEDTAVYYCARDRRGDYGDSWYFDLWGRGTLVTVSS
VL: EIVMTQSPATLSVSPGERATLSCRASQSVRNYLAWYQQKPGQAPRLLIYGASTRATGIPARFSGSGSGTEFTLTISSLQSEDFAVYYCQQYGSSPLTFGGGTKVEIK
B17: MAdCAM antibody Clone ID 54 of Table 7 (IgG) (antibody, V domains shown)
VH: QVQLVQSGAEVKKPGSSVKVSCKASGGTLSRYGVSWVRQAPGQGLEWMGGIIPIFGTTNYAQKFQGRVTITADESTSTAYMELSSLRSEDTAVYYCARDRVYYDSSGYPTWYFDLWGRGTLVTVSS
VL: EIVMTQSPATLSVSPGERATLSCRASQSVSSSYLAWYQQKPGQAPRLLIYGASTRATGIPARFSGSGSGTEFTLTISSLQSEDFAVYYCQQYGSSPITFGQGTKVEIK
B18: MAdCAM antibody Clone ID 56 of Table 7 (IgG) (antibody, V domains shown)
VH: EVQLVESGGGLVKPGGSLRLSCAASGFTFSSYWMSWVRQAPGKGLEWVSAIGTGGGTYYAAPVKGRFTISRDDSKNTLYLQMNSLKTEDTAVYYCAREWLVPYYGMDVWGQGTTVTVSS
VL: B12 VL with D27Q, N28S, G30S, S31R, A50G, S53N, G91S, P96W
B19: MAdCAM antibody Clone ID 64 of Table 7 (IgG) (antibody, V domains shown)
VH: EVQLLESGGGLVQPGGSLRLSCAASGFTFSNSDMNWVRQAPGKGLEWVAHIWNDGSQKYYADSVKGRFTISRDNSKNTLYLQMNSLRAEDTAVYYCARDRTDPGYSSAMDVWGQGTTVTVSS
VL: DIQMTQSPSSLSASVGDRVTITCRASQDIRNYLGWYQQKPGKAPKLLIYDASSLETGVPSRFSGSGSGTDFTLTISSLQPEDFATYYCQQATSLPLTFGGGTKVEIK
B20: MAdCAM antibody Clone ID 66 of Table 7 (IgG) (antibody, V domains shown)
VH: QVQLVQSGAEVKKPGASVKVSCKASGYTFTGHYMHWVRQAPGQGLEWMGIINPSGGSTSYAQKFQGRVTMTRDTSTSTVYMELSSLRSEDTAVYYCARDGAWFGEEYYYGMDVWGQGTTVTVSS
VL: DIQMTQSPSSLSASVGDRVTITCRASQGISNWLAWYQQKPGKAPKLLIYDASNLETGVPSRFSGSGSGTDFTLTISSLQPEDFATYYCQQYYSFPLYTFGQGTKVEIK
B21: MAdCAM antibody Clone ID 69 of Table 7 (IgG) (antibody, V domains shown)
VH: QVQLVQSGAEVKKPGASVKVSCKASGYTFTSYYMHWVRQAPGQGLEWMGIIDPSGGSTSYAQKFQGRVTMTRDTSTSTVYMELSSLRSEDTAVYYCAREEWSSGGVGYFDYWGQGTLVTVSS
VL: DIQMTQSPSSLSASVGDRVTITCRASQGISSYLAWYQQKPGKAPKLLIYATSSLQTGVPSRFSGSGSGTDFTLTISSLQPEDFATYYCQQTYSIPITFGQGTRLEIK
B22: MAdCAM antibody Clone ID 8 of Table 6 (scFv) (scFv)
scFv: EVQLLESGGGLVQPGGSLRLSCAASGFMFGDYAMHWVRQAPGKGLEWVSAISGSGGSTYYADSVKGRFTISRDNSKNTLYLQMNSLRAEDTAVYYCAKDLVVAGIWYFDLWGRGTLVTVSSGGGGSGGGGSGGGGSGGGGSDIQMTQSPSSLSASVGDRVTITCRASQGISNNLNWYQQKPGKAPKLLIYDASSLESGVPSRFSGSGSGTDFTLTISSLQPEDFATYYCQQTHSFPSTFGQGTKLEIK

molecular target: Cyno MAdCAM protein (cyno); assay: ELISA

binding, binds:
B1
B2
B3
B4
B5
B6
B7
B8
B9
B10
B11
B12
B13
B14
B15
B16
B17
B18
B19
B20
B21
B22
